# Source: PubChem BioAssay AID493014 (National Center for Advancing Translational Sciences (NCATS), 2011)
# About 170 (0.05%) of roughly 340,000 compounds were called active. The inconclusive results got no clear call from the source; some entries with a clear call stand among them for comparison. Calls come from the whole dose curve; as a rule, active = well fitted inhibition curve with a large enough effect in the signal ratio, with a control signal flat (not every such curve was filed as active); inconclusive = small, poorly fitted or top-dose-only effect, or effect the other way, or a change in a side signal; inactive = flat fitted curve, though single readings scatter; the % refers to the signal ratio. Where the call is inconclusive, the potency comes from a doubtful curve fit.
# Experiment: qHTS Assay to Find Inhibitors of Chronic Active B-Cell Receptor Signaling;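 for activity change, negative = inhibition: plate controls were basal doxycycline-induced cells for no effect and cells given 10 µM MG132 for full effect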
# Conditions: ABC-DLBCL IkBa-CBG/CBR reporter, luminescence ratio (green luciferase fused to IkBa over red control in TMD8 lymphoma cells), 4 h; activity change, negative = inhibition: at 46.1 µM (top of the series)
# Procedure, shortened: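 Concentration-response series (up to 46 uM) were applied to TMD8 dual-reporter cells for 4 h at 37C with doxycycline. Green/red ratio, after filter-overlap correction, defined %Activity; red signal alone was normalised to basal cells and zero luminescence.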
# Potency is the fitted concentration of half-maximal effect.
Compound,"activity change, negative = inhibition",Potency
CC(=O)Nc1cc(C(=O)N2CCc3ccccc3C2)ccc1Sc1ccc(Cl)cc1,inactive: 5.86%,–
O=C1Nc2ccc(Cl)cc2C(=O)C1(F)c1ccccc1 (stereo not drawn),inconclusive: 4.78%,–
CCOC(=O)c1c(CSC(=N)N)n(-c2ccc(Br)cc2)c2cc(Br)c(OC(C)=O)cc12,inconclusive: 5.87%,–
Cc1ccc(-c2nnc3cccc(Cl)n23)cc1,inconclusive: 7.92%,–
CC(C)C(C)NC(=O)COn1nnc2ccc(S(=O)(=O)N3CCOCC3)cc21 (stereo not drawn),inconclusive: -3.98%,–
COc1ccc(-c2csc(NC(=S)NC(=O)/C=C/c3ccc(C(C)C)cc3)n2)cc1OC,inconclusive: 0.722%,–
Cc1[nH]c2ccccc2c1C(=O)COC(=O)c1ccc2c(=O)n3c(nc2c1)CCC3,inconclusive: -8.08%,–
COc1ccc(/C=C/C(=O)Nc2cccnc2Cl)cc1,–,"inconclusive: 31.6 µM [rising, single point]"
CCC(=O)Nc1ccc(C(=O)CSc2nnc(-c3cccnc3)o2)cc1,inconclusive: 0.545%,–
CC(=O)c1ccc(N2CCN(S(=O)(=O)c3cc(-c4cc(C)no4)ccc3C(C)C)CC2)cc1,inactive: 10.6%,–
CCN1CCN(C(=S)c2ccc(OC)cc2)CC1,inactive: -12.4%,–
O=C(Nc1ccc(CN2CCOCC2)cc1)c1ccc(N2CCCC2)c([N+](=O)[O-])c1,inactive: -0.42%,–
Cc1ccc(NS(=O)(=O)c2ccc(Cl)c(C(=O)Nc3ccccc3-c3nc4ccccc4[nH]3)c2)cc1C,inconclusive: 0.0127%,–
O=C(NNC(=O)c1ccccc1Br)c1cccc(Cl)c1,–,"inconclusive: 25.1 µM [falling, single point]"
CCN1C(=O)C(O)(CC(=O)c2cc(C)ccc2C)c2ccccc21 (stereo not drawn),inactive: -0.192%,–
COc1ccc2[nH]c(=O)c(CN(Cc3cccs3)C(=S)Nc3cccc(C)c3)cc2c1,inactive: 1.76%,–
Cc1ccc(/C=N\NC(=O)C2CC(=O)N(c3ccccc3)C2)o1 (stereo not drawn),inconclusive: 5.9%,–
O=C(Nc1cccc(Br)c1)c1ccc2nc(N3C(=O)CCC3=O)sc2c1,inconclusive: -9.84%,–
Cc1ccc(SC2CC(=O)N(c3ccc4c(c3)OCCO4)C2=O)cc1 (stereo not drawn),inconclusive: -13.3%,–
COC(=O)NNC(=O)COc1ccc2ccccc2c1Br,inconclusive: 3.56%,–
CC(=O)c1cccc(CN2CCCC(C(=O)Nc3ccc(-c4ccco4)cc3)C2)c1 (stereo not drawn),inconclusive: -4.69%,–

Compound,"activity change, negative = inhibition",Potency
c1ccc(Nc2ccnc(Nc3ccccc3)n2)cc1,inactive: -17.6%,–
CCc1ccc(CCC(=O)Nc2ccc(C(=O)O)cc2)o1,–,"inconclusive: 10 µM [falling, partial curve]"
NC(=O)c1ccccc1N/C=C/C(=O)c1ccc(Cl)cc1Cl,–,"inconclusive: 20 µM [falling, single point]"
C=CCn1c(C)cc(-c2csc(NC)n2)c1C,inconclusive: -7.38%,–
CC(C)OP(=O)(c1ccc(N(C)C)cc1)C(Nc1ccccc1)c1ccccc1 (stereo not drawn),inconclusive: -2.28%,–
CCC(C)Sc1ccc(-c2nc3ccc(C)cn3c2NC2CCCCC2)cc1 (stereo not drawn),inactive: -8.22%,–
CS(=O)(=O)c1ccc(C(=O)OCC(=O)Nc2cccnc2Cl)cc1[N+](=O)[O-],inconclusive: 6.65%,–
Oc1[nH]c2ccccc2c1N=NC(=S)N1CCOCC1,–,"inconclusive: 1.26 µM [cytotoxic, full curve, poor fit]"
Cc1ccc(Nc2nnc(-c3ccccc3N)o2)cc1C,–,"inconclusive: 31.6 µM [rising, partial curve]"
COc1ccc(NC(=O)C2C3C=CC(C3)C2C(=O)O)cc1 (stereo not drawn),inconclusive: 3.89%,–
COc1ccc2c(c1)[nH]c(=O)c1sc3ccccc3c12,–,"inconclusive: 11.2 µM [rising, partial curve, poor fit]"
CS(=O)(=O)Nc1cccc(C2=NN(C(=O)c3ccco3)C(c3ccco3)C2)c1 (stereo not drawn),inactive: -5.08%,–
O=C1C2CCCN2C(=O)N1CCCCN1CCN(c2cccc(Cl)c2)CC1 (stereo not drawn),inactive: 0.336%,–
Cc1nc2ccc(NC(=O)N3CCCCC3)cc2nc1C,inconclusive: -7.41%,–
Cc1[nH]nc(SCC(=O)N2CCC(C)CC2)c1[N+](=O)[O-],–,"inconclusive: 29.1 µM [falling, single point]"
N#C/C(=N/Nc1ccc(OC(F)(F)F)cc1)C(N)=S,–,"inconclusive: 35.5 µM [falling, single point]"
Cc1ccc2nsnc2c1S(=O)(=O)NCCc1c(C)[nH]c2ccc(F)cc12,inconclusive: -12.2%,–
Cc1ccc(S(=O)(=O)NCCNC(=O)c2ccccc2)cc1,inconclusive: 5%,–
O=C(C1CCC(=O)N(C2CCCC2)C1)N1CCN(c2ccc(Cl)cc2)CC1 (stereo not drawn),inconclusive: -13.3%,–
Cc1ccc(Cl)cc1NC(=O)CCN1C(=O)C2C3CCC(C3)C2C1=O (stereo not drawn),inactive: -8.63%,–
CC(=O)Cc1nsc(NC(=O)c2cc(-c3cccc(C(F)(F)F)c3)oc2C)n1,–,"inconclusive: 7.31 µM [rising, partial curve, poor fit]"

Compound,"activity change, negative = inhibition",Potency
COc1cc(/C=N/n2c(COc3ccccc3)n[nH]c2=S)cc(OC)c1OC(C)=O,inconclusive: 2.09%,–
Cc1ccc(CN2CCN(Cc3ccc(-n4cccn4)cc3C)CC2CCO)cc1 (stereo not drawn),inactive: -22.7%,–
COc1ccc2nc(SCC(=O)NCc3ccc(S(N)(=O)=O)cc3)[nH]c2c1,inconclusive: 3.2%,–
CCOC(=O)c1cccc(NC(=O)/C=C/c2ccc3c(c2)OCO3)c1,–,"inconclusive: 2.59 µM [falling, partial curve, poor fit]"
O=C(COc1ccccc1)N1CCN(c2ncccn2)CC1,inactive: 3.71%,–
O=C(C1CCCO1)N1CCN(Cc2c(O)ccc3ccccc23)CC1 (stereo not drawn),inconclusive: 3.8%,–
CCc1cc2c(NCC3CCCO3)nc(C)nc2s1 (stereo not drawn),–,"inconclusive: 32.6 µM [falling, partial curve, poor fit]"
O=c1oc2ccccc2nc1/C=C(\O)c1ccc(Br)cc1,–,"inconclusive: 8.91 µM [falling, partial curve]"
Cc1noc(C)c1C(=O)Nc1nc2ccc(S(C)(=O)=O)cc2s1,–,"inconclusive: 22.4 µM [falling, partial curve]"
C[n+]1c2n(c3ccccc31)N=C(c1cc(C(C)(C)C)c(O)c(C(C)(C)C)c1)CS2,–,"inconclusive: 20 µM [falling, single point]"
N#Cc1c[nH]n2c(=O)c3c(nc12)CCC3,inconclusive: 12.4%,–
CC(C)(C)n1ncc2c(=O)n(CC(=O)NCc3ccc(F)cc3)cnc21,inactive: -25.5%,–
CCOCCOC(=O)NCCCCCCNC(=O)OCCOCC,inconclusive: 1.1%,–
N/C(=N\c1nc2ccccc2o1)NC(=O)c1cccc(Cl)c1,inconclusive: 17.5%,–
O=C(O)CCCCCNC(=O)c1cccc(Br)c1,–,"inconclusive: 11.2 µM [falling, partial curve]"
O=c1[nH]c2cc3c(cc2cc1CN(Cc1nnnn1C1CCCC1)C1CCCC1)OCCO3,inactive: -17.4%,–
CCN(C[C@H]1N[C@@](CC)(C(=O)OC)[C@H]2C(=O)N(Cc3ccccc3)C(=O)[C@@H]12)C(C)=O,inconclusive: -0.203%,–
Cc1cccc(NC(=S)N2CCCCCC2)c1C,inconclusive: -5.26%,–
N=c1oc2cc(O)ccc2cc1C(=O)Nc1ccc(F)cc1,inconclusive: 216%,–
Cn1cccc1/C=C1/SC(=O)N(CC(=O)N2CCCC2)C1=O,inconclusive: 14.7%,–
Cc1cc(C(=O)Nc2ccc(Br)cc2)cs1,inconclusive: -6.64%,–

Compound,"activity change, negative = inhibition",Potency
O=C(CN1CCOCC1)NCCNS(=O)(=O)c1ccccc1,inconclusive: -1.75%,–
Cc1ccc(C(OCC(O)CNC(C)c2ccccc2)c2ccccc2)cc1 (stereo not drawn),inconclusive: -5.03%,–
Cc1ccc(/C=N/NC(=O)c2nnn(-c3nonc3N)c2CNc2ccccc2)cc1,inactive: 4.33%,–
Cc1nc(NS(=O)(=O)c2cccs2)c2c3c(sc2n1)CCC3,inconclusive: 5.24%,–
CCCCNC(=S)N1CCn2cccc2C1c1ccccc1 (stereo not drawn),inconclusive: 0.174%,–
CC(=O)c1sc(NC(=O)c2oc3ccc(F)cc3c2C)nc1C,inconclusive: -7.46%,–
CCOC(=O)c1ccc(N2C(=O)C3CC=CCC3C2=O)cc1 (stereo not drawn),inactive: 4.49%,–
CC1(C)O[C@@H]1COc1c2ccoc2cc2oc(=O)ccc12,inconclusive: -0.0093%,–
Nc1nc(Nc2ccc(Cl)cc2)nc(NCCO)c1[N+](=O)[O-],inconclusive: 14.5%,–
Cc1nc2ccccn2c1C(=O)N/N=C/c1ccc([N+](=O)[O-])o1,inactive: 0.19%,–
Cc1[nH]c2ccccc2c1C(=O)C(=O)NC1CC1,–,"inconclusive: 25.1 µM [falling, single point]"
CC(=O)Nc1ccc(S(=O)(=O)Nc2c(NC3CCCCC3)c3ccccc3oc2=O)cc1,–,"inconclusive: 11.2 µM [falling, partial curve]"
O=C1COc2ccc(C(=O)NCc3ccco3)cc2N1,inconclusive: 10.1%,–
COc1ccc(C(NC(=O)c2cc(OC)ccc2OC)c2ccccc2)cc1 (stereo not drawn),inconclusive: -20.7%,–
COc1cc(OC)c(C2Nc3cccc4cccc(c34)N2)c(OC)c1,–,"inconclusive: 11.2 µM [falling, partial curve, poor fit]"
COc1cc(Cl)c(C)cc1NC(=O)CN1CCN(C(=O)C2CC2)CC1,inactive: -0.0198%,–
COCCn1c(=S)[nH]c2cc(C(=O)N3CCN(c4cccc(Cl)c4)CC3)ccc2c1=O,inactive: 8.6%,–
O=C(NCc1ccccc1)NC(=O)c1ccccc1,inconclusive: -1.74%,–
Cc1ccc(O)c(-c2cc(C(=O)NCc3ccccc3)[nH]n2)c1,inconclusive: -0.788%,–
COCCN(C(=O)COC(=O)CCCOc1ccccc1)c1c(N)n(Cc2ccccc2)c(=O)[nH]c1=O,–,"inconclusive: 18.4 µM [falling, partial curve]"

# Of the compounds above, these have a tert-butyl group:
Compound,"activity change, negative = inhibition",Potency
C[n+]1c2n(c3ccccc31)N=C(c1cc(C(C)(C)C)c(O)c(C(C)(C)C)c1)CS2,–,"inconclusive: 20 µM [falling, single point]"
CC(C)(C)n1ncc2c(=O)n(CC(=O)NCc3ccc(F)cc3)cnc21,inactive: -25.5%,–

# Exported as tab-separated lines: part of the list above
Compound	activity change, negative = inhibition	Potency
COc1ccc(-c2csc(NC(=S)NC(=O)/C=C/c3ccc(C(C)C)cc3)n2)cc1OC	inconclusive: 0.722%	–
Cc1ccc(SC2CC(=O)N(c3ccc4c(c3)OCCO4)C2=O)cc1 (stereo not drawn)	inconclusive: -13.3%	–
O=C(NCc1ccccc1)NC(=O)c1ccccc1	inconclusive: -1.74%	–
Cc1ccc(O)c(-c2cc(C(=O)NCc3ccccc3)[nH]n2)c1	inconclusive: -0.788%	–
